Source: PubChem BioAssay AID540276 (National Center for Advancing Translational Sciences (NCATS), 2011)
The whole screen tested about 300,000 compounds, of which about 5,400 (1.8%) were called active. This list was built around the results that the source calls inconclusive (neither active nor inactive); the mix of calls is not that of the screen. Calls follow the shape of the full dose curve; tested in HEK293 cells. Potencies beside an inconclusive call are fits to weak or partial responses and may not hold up.

Experiment: qHTS for inhibitors of binding or entry into cells for Marburg Virus
Conditions: Marburg virus pseudotyped entry inhibition, cell reporter; series mostly up to 37.8 µM
Potency is read from the fitted curve at half-maximal effect.

Row | SMILES | Potency
1 | CC1CCCN(C(=O)C2(NC(=O)Nc3cccc(F)c3)CCCCC2)C1 (configuration not stated) | inactive
2 | Cc1ccc(NC(=O)CN2CCCC2)cc1Br | inconclusive: 8.91 µM [inhibitor, partial curve, poor fit]
3 | CCn1cc(C(=O)N2CCN(c3cccc(Cl)c3)CC2)c(=O)c2cc(S(=O)(=O)N3CCOCC3)ccc21 | inconclusive: 22.4 µM [inhibitor, single point]
4 | COc1ccc(NC(=O)c2cc(Br)ccc2Cl)c(OC)c1 | inactive
5 | COC(=O)c1ccc(CSc2nc3c(c(=O)n2-c2ccc(Br)cc2)SCC3)o1 | inactive
6 | Cc1c(C(=O)O)c(C(=O)O)c2n1CCS2 | inactive
7 | CCc1cccc2c1NC(=O)[C@]21[C@@H]2C(=O)N(Cc3ccccc3)C(=O)[C@@H]2[C@@H]2CCCN21 | inconclusive: 20.6 µM [inhibitor, partial curve, poor fit]
8 | COc1ccc(S(=O)(=O)N(C)CC(=O)Nc2ccc3c(c2)OCO3)cc1 | inactive
9 | O=C1SC(SC(=Nc2ccccc2)Nc2ccccc2)C(=O)N1c1ccccc1 (configuration not stated) | inactive
10 | C=CCn1c(SCC(=O)NCc2ccco2)nnc1-c1ccc2ccccc2n1 | inconclusive: 11.2 µM [inhibitor, partial curve, poor fit]
11 | CCn1ccnc1CN1CCCC(C(=O)c2ccc3cc(OC)ccc3c2)C1 (configuration not stated) | inconclusive: 35.5 µM [inhibitor, single point]
12 | COC(=O)N[C@@H](/C=C/c1ccccc1)/C(C(=O)OC)=C(\C)NCc1ccccc1 | inactive
13 | Cc1ccc(C2CC(=O)N(Cc3ccccc3F)c3c2c(C)nn3-c2nc(C)cc(C)n2)cc1 (configuration not stated) | inactive
14 | COC(=O)c1ccc(COC(=O)CNC(=O)c2ccco2)cc1 | inactive
15 | O=C(NCCO)c1cccc(Nc2nc(-c3ccccc3)c3cc(Cl)ccc3n2)c1 | inconclusive: 9.2 µM [inhibitor, partial curve, poor fit]
16 | CCOC(=O)c1c(C)[nH]c(C=Nc2ccc(OC)cc2)c1O | inactive
17 | O=C(Nc1ccc(Br)c(Cl)c1)c1ccco1 | inactive
18 | CCOc1ccc(NC(=O)c2ccc(NC(=O)CCS(=O)(=O)c3cccs3)cc2)cc1 | inconclusive: 3.55 µM [activator, single point]
19 | COc1cc(/C(C#N)=C/c2ccccc2)c([N+](=O)[O-])cc1OC | inactive
20 | COC(=O)c1ccc(NC(=O)Cc2ccc(F)cc2)cc1 | inconclusive: 3.16 µM [activator, full curve, poor fit]
21 | Cc1cccc(N2CCN(C(=O)c3c(-c4ccccc4)noc3C)CC2)c1C | active: 2.51 µM
22 | Cc1cc(=O)oc2c(CN(CC(C)C)CC(C)C)c(O)ccc12 | inconclusive: 0.073 µM [inhibitor, full curve, poor fit]
23 | Cc1[nH]c2ccc(-c3nnc(SCC(=O)NCc4ccco4)n3Cc3ccccc3)cc2c1C | inconclusive: 11.2 µM [inhibitor, single point]
24 | CCOc1ccc(CCNC(=O)CCc2c(C)nc3c(c(C)nn3-c3ccccc3)c2C)cc1OCC | inconclusive: 10 µM [activator, partial curve, poor fit]

Row | SMILES | Potency
25 | COC(=O)COc1cccc(-n2cnnn2)c1 | inactive
26 | COc1ccccc1C(=O)NCCSCc1ccccc1Cl | inactive
27 | C/C(Cn1nnc2ccccc21)=N\NC(=O)c1cccc(Br)c1 | inactive
28 | COc1ccc(C(=O)Nc2cc(C)c(NC(=O)c3ccccc3OC)cn2)cc1 | inconclusive: 7.94 µM [inhibitor, partial curve, poor fit]
29 | CN(C)N1C(=O)C2C3C=CC(O3)C2C1=O (configuration not stated) | inactive
30 | CC(NCC(=O)NCC(=O)Nc1ccc(F)cc1)c1cccc(C(F)(F)F)c1 (configuration not stated) | inactive
31 | Cc1cc(C)nc(SCC(=O)OC(C)C(=O)Nc2ccccc2)n1 (configuration not stated) | inactive
32 | Cc1cc(Cl)c(S(=O)(=O)N2CCN(c3ccccc3)CC2)cc1OCC(N)=O | inconclusive: 17.8 µM [inhibitor, single point]
33 | Cc1ccc(CS(=O)(=O)c2nc3c(c(N(C)C)n2)CCCC3)cc1 | inconclusive: 0.562 µM [inhibitor, full curve, poor fit]
34 | O=S1(=O)CC(N2CCCC2)CN1CCc1ccccc1 (configuration not stated) | inconclusive: 0.0003 µM [activator]
35 | CSC(=NC1CCCCC1)NS(=O)(=O)c1ccccc1 | inconclusive: 20 µM [inhibitor, single point]
36 | Cc1cccc(Cn2c(N3CCc4ccccc4C3)nc3c2c(=O)[nH]c(=O)n3C)c1 | inactive
37 | O=C(Nc1ccc(N2CCOCC2)cc1)c1cnccn1 | inconclusive: 3.98 µM [inhibitor, full curve, poor fit]
38 | Cc1ccc(NC(=O)CCNC(=O)c2ccco2)cc1 | inconclusive: 5.62 µM [activator, single point]
39 | Cc1ccccc1C(=O)N1CCC(c2nc3ccccc3s2)CC1 | inconclusive: 2.51 µM [activator, full curve]
40 | CN(C)c1ccc(Nc2nc(N)c([N+](=O)[O-])c(N3CCOCC3)n2)cc1 | inconclusive: 10 µM [inhibitor, partial curve, poor fit]
41 | CNc1nc(C)c([N+](=O)[O-])c(Nc2ccc(OC)cc2)n1 | inconclusive: 6.31 µM [inhibitor, full curve, poor fit]
42 | CC(=O)c1c(C)[nH]c(C(=O)OCC(=O)NCCc2ccc(Cl)cc2)c1C | inconclusive: 14.1 µM [inhibitor, single point]
43 | COc1cc(NC(=O)c2nnn(Cc3ccc(F)cc3)c2N)cc(OC)c1 | inactive
44 | O=C(C1CC(=O)N(C2CCCCC2)C1)N1CCC2(CC1)OCCO2 (configuration not stated) | inactive
45 | Cc1ccccc1NC(=O)CC1SC(=NC2CCCCC2)NC1=O (configuration not stated) | inactive
46 | CN(C)c1ccc(N=Nc2ccccc2C(=O)OCC(=O)NCC2CCCCC2)cc1 | inconclusive: 28.2 µM [inhibitor, partial curve, poor fit]
47 | CCC(=O)Nc1ccc(C(=O)OCc2ccc(Cl)c(Cl)c2)cc1 | inconclusive: 4.47 µM [inhibitor, partial curve, poor fit]
48 | CCc1cc2c(=O)c(-c3cscn3)coc2c(CN(C)C)c1O | inactive

In a second layout: 5 of the compounds above.
Row	SMILES	Potency
34	O=S1(=O)CC(N2CCCC2)CN1CCc1ccccc1 (configuration not stated)	inconclusive: 0.0003 µM [activator]
35	CSC(=NC1CCCCC1)NS(=O)(=O)c1ccccc1	inconclusive: 20 µM [inhibitor, single point]
36	Cc1cccc(Cn2c(N3CCc4ccccc4C3)nc3c2c(=O)[nH]c(=O)n3C)c1	inactive
37	O=C(Nc1ccc(N2CCOCC2)cc1)c1cnccn1	inconclusive: 3.98 µM [inhibitor, full curve, poor fit]
38	Cc1ccc(NC(=O)CCNC(=O)c2ccco2)cc1	inconclusive: 5.62 µM [activator, single point]

Rewritten with each value named: entries from further up
CC(NCC(=O)NCC(=O)Nc1ccc(F)cc1)c1cccc(C(F)(F)F)c1 (configuration not stated)
  Potency: inactive
Cc1cc(C)nc(SCC(=O)OC(C)C(=O)Nc2ccccc2)n1 (configuration not stated)
  Potency: inactive

(cont.)

Row | SMILES | Potency
49 | O=C(/C=C/Nc1ccc(F)cc1Br)c1ccccc1 | inconclusive: 2.24 µM [inhibitor, full curve, poor fit]
50 | COc1ccc(-c2cc(C(F)F)n3ncc(C(=O)Nc4cc(C)on4)c3n2)cc1 | inconclusive: 6.31 µM [inhibitor, single point]
51 | Brc1ccc(-c2nnc(-c3cccc(Br)c3)o2)cc1 | inconclusive: 3.98 µM [activator, full curve, poor fit]
52 | CCCCOc1ccc(C(C)NC(=O)CCS(=O)(=O)Cc2ccccc2F)cc1 (configuration not stated) | inactive
53 | C=CCN(CC=C)S(=O)(=O)c1ccc(NC(=S)NC(=O)c2ccc(-c3ccccc3)cc2)cc1 | inconclusive: 3.98 µM [inhibitor, full curve, poor fit]
54 | COc1ccc([N+](=O)[O-])cc1NC1CCCCC1 | inactive
55 | COc1ccc(COC(=O)NN=C2C[C@@H](O)[C@@H](O)[C@@H]3[C@H]4C(=O)N(C[C@@H]5CCCO5)C(=O)[C@@H]4CC[C@@H]23)cc1 | inconclusive: 15.8 µM [activator, partial curve]
56 | N#CC1(NC(=O)COC(=O)c2nc(Cl)c(Cl)c(N)c2Cl)CCCCC1 | inactive
57 | Cc1cc(OCCN2CCCC2)ccc1C(C)C | inconclusive: 10 µM [inhibitor, partial curve]
58 | O=C1OC(/C(=C\Nc2cc(Cl)ccc2O)[N+](=O)[O-])c2ccccc21 (configuration not stated) | inconclusive: 0.562 µM [activator, partial curve, poor fit]
59 | O=C(c1ccc(-n2cccn2)cc1)N1CCc2ccccc2C1 | inactive
60 | CCCN1CCC(NC(=O)Nc2ccccc2C(=O)OC)CC1 | inactive
61 | N#C/C(=C/c1ccc(CNS(=O)(=O)c2ccccc2)o1)C(N)=O | inconclusive: 3.26 µM [activator, single point]
62 | COc1cccc(OCCOCC(O)CN2CCN(Cc3ccc(Cl)cc3)CC2)c1 (configuration not stated) | inconclusive: 7.08 µM [inhibitor, partial curve, poor fit]
63 | O=C(CCc1c[nH]c2ccccc12)N/N=C/c1ccc2c(c1)OCO2 | inconclusive: 5.62 µM [activator, single point]
64 | c1ccc(CN2CCN(c3ncnc4c3[nH]c3ccccc34)CC2)cc1 | inconclusive: 11.2 µM [inhibitor, partial curve, poor fit]
65 | CC(C)(CO)CNC(=O)c1ccc2nc(Cc3cccc(Cl)c3)oc2c1 | inactive
66 | Fc1ccccc1C1c2[nH]c3ccccc3c2CCN1CCCn1cccn1 (configuration not stated) | inconclusive: 35.5 µM [inhibitor, single point]
67 | CC1CCN(CCNC(=O)CCS(=O)(=O)c2ccc(Br)cc2)CC1 | inconclusive: 6.31 µM [activator, single point]
68 | O=C(Nc1ccc(N2CCCCC2)cc1)c1ccc(F)cc1F | inconclusive: 7.08 µM [inhibitor, full curve, poor fit]
69 | Cc1noc(/C=C/N(C)C)c1S(=O)(=O)N1CCCC(C(=O)NCc2ccc(Cl)cc2)C1 (configuration not stated) | inconclusive: 0.103 µM [activator, full curve]
70 | Cc1cccc(NC(=O)CSc2nc3c(oc4ccccc43)c(=O)n2-c2ccccc2)c1 | inconclusive: 0.316 µM [inhibitor, full curve, poor fit]
71 | CC/C(=C\c1ccc(Cl)cc1)c1ccncc1 | inactive
72 | CCOC(=O)c1cnc2c(C(F)(F)F)cccc2c1N1CCN(C)CC1 | inconclusive: 11.2 µM [inhibitor, single point]
